Values from PubChem BioAssay AID1259254 (NCATS, 2017).
Assay: 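Gene knock-downs that lead to re-replication, shown by excess G2 DNA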 (primary screen). Cell system: human HCT116 colorectal cancer cells. Reagent: single siRNA against human genes. Timing: 3 days. Read-out: 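Imaged Hoechst DNA stain sorts each cell into a cycle phase by DNA amount; per plate, G2 fraction set to 0% for non-targeting and 100% for GMNN siRNA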. Reading the numbers: G2 robust z-score and G2 cells, % of GMNN control: higher = more G2 cells, more excess DNA replication; raw share of cells in G2: higher = larger share of cells with G2 DNA content. Call rule: 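Active siRNAs have a G2 robust z of 5 or more median absolute deviations over the median, which in these data means about 38% or higher of GMNN control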.
The deposit covers about 59,000 reagents; shown is a random part of them. About 1,550 of all reagents (2.6%) were called active. 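G2 share is only a proxy for re-replication; each gene was hit by three separate siRNAs, and active genes were retested.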 Raw values are not corrected between plates. The numbers tell different reagents against one gene apart. Not given: the amount of reagent.

no.	gene symbol	reagent no.	G2 robust z-score	G2 cells, % of GMNN control	raw share of cells in G2 (%)	Outcome
1	OTULIN-DT (OTULIN divergent transcript)	1	0.651	7.55	6.41	inactive
2	OTULIN-DT (OTULIN divergent transcript)	2	0.373	5.59	4.84	inactive
3	OTULIN-DT (OTULIN divergent transcript)	3	-0.92	-3.5	2.27	inactive
4	NGRN (neugrin, neurite outgrowth associated)	1	-1.58	-8.16	0.681	inactive
5	NGRN (neugrin, neurite outgrowth associated)	2	1.88	16.2	11.1	inactive
6	NGRN (neugrin, neurite outgrowth associated)	3	-0.26	1.14	3.57	inactive
7	PTGIS (prostaglandin I2 synthase)	1	5.23	39.8	18.7	active
8	PTGIS (prostaglandin I2 synthase)	2	0.224	4.55	5.66	inactive
9	PTGIS (prostaglandin I2 synthase)	3	-1.03	-4.29	3.04	inactive
10	IL17RA (interleukin 17 receptor A)	1	0.989	9.93	7.24	inactive
11	IL17RA (interleukin 17 receptor A)	2	-0.584	-1.14	5.65	inactive
12	IL17RA (interleukin 17 receptor A)	3	-0.96	-3.79	2.93	inactive
13	PER3 (period circadian regulator 3)	1	0.84	8.88	9.07	inactive
14	PER3 (period circadian regulator 3)	2	0.474	6.3	6.39	inactive
15	PER3 (period circadian regulator 3)	3	-0.555	-0.938	3.02	inactive
16	LRRC34 (leucine rich repeat containing 34)	1	1.23	11.6	7.73	inactive
17	LRRC34 (leucine rich repeat containing 34)	2	0.563	6.93	5.05	inactive
18	LRRC34 (leucine rich repeat containing 34)	3	-0.33	0.645	3.29	inactive
19	C1orf115 (chromosome 1 open reading frame 115)	1	0.536	6.74	7.24	inactive
20	C1orf115 (chromosome 1 open reading frame 115)	2	-0.39	0.222	4.4	inactive
21	C1orf115 (chromosome 1 open reading frame 115)	3	-0.919	-3.5	1.42	inactive
22	ADGRG1 (adhesion G protein-coupled receptor G1)	1	1	10	9.43	inactive
23	ADGRG1 (adhesion G protein-coupled receptor G1)	2	-1.43	-7.12	2.03	inactive
24	ADGRG1 (adhesion G protein-coupled receptor G1)	3	-0.114	2.17	3.93	inactive
25	CD1C (CD1c molecule)	1	-1.23	-5.66	2.65	inactive
26	CD1C (CD1c molecule)	2	-0.161	1.84	4.76	inactive
27	CD1C (CD1c molecule)	3	0.5	6.48	6.06	inactive
28	APP (amyloid beta precursor protein)	1	2.27	18.9	11	inactive
29	APP (amyloid beta precursor protein)	2	0.204	4.4	6.64	inactive
30	APP (amyloid beta precursor protein)	3	1.82	15.8	10.1	inactive
31	HCST (hematopoietic cell signal transducer)	1	0.654	7.57	7.26	inactive
32	HCST (hematopoietic cell signal transducer)	2	-0.619	-1.39	4.44	inactive
33	HCST (hematopoietic cell signal transducer)	3	0.0396	3.25	4.39	inactive
34	RTCA (RNA 3'-terminal phosphate cyclase)	1	1.36	12.5	9.19	inactive
35	RTCA (RNA 3'-terminal phosphate cyclase)	2	-0.686	-1.86	4.61	inactive
36	RTCA (RNA 3'-terminal phosphate cyclase)	3	-0.488	-0.465	4.33	inactive
37	DRAIC	1	0.152	4.04	5.18	inactive
38	DRAIC	2	0.803	8.62	5.58	inactive
39	DRAIC	3	0.322	5.23	4.89	inactive
40	RGS7 (regulator of G protein signaling 7)	1	0.688	7.81	6.74	inactive
41	RGS7 (regulator of G protein signaling 7)	2	0.97	9.79	8.35	inactive
42	RGS7 (regulator of G protein signaling 7)	3	-0.584	-1.14	4.24	inactive
43	IL17REL (interleukin 17 receptor E like)	1	-0.623	-1.42	3.3	inactive
44	IL17REL (interleukin 17 receptor E like)	2	1.11	10.8	7.81	inactive
45	IL17REL (interleukin 17 receptor E like)	3	-0.881	-3.23	3.45	inactive
46	RPIA (ribose 5-phosphate isomerase A)	1	-0.69	-1.89	3.22	inactive
47	RPIA (ribose 5-phosphate isomerase A)	2	4.13	32	19.2	inactive
48	RPIA (ribose 5-phosphate isomerase A)	3	0.374	5.6	6.03	inactive
49	GBA3 (glucosylceramidase beta 3 (gene/pseudogene))	1	0.166	4.14	5.73	inactive
50	GBA3 (glucosylceramidase beta 3 (gene/pseudogene))	2	0.0101	3.04	6.9	inactive
51	GBA3 (glucosylceramidase beta 3 (gene/pseudogene))	3	-0.311	0.78	4.62	inactive
52	SPANXB1 (SPANX family member B1)	1	0.657	7.59	7.89	inactive
53	SPANXB1 (SPANX family member B1)	2	0.184	4.26	6.52	inactive
54	SPANXB1 (SPANX family member B1)	3	0.392	5.72	4.21	inactive
55	CMKLR2 (chemerin chemokine-like receptor 2)	1	2.68	21.8	13.6	inactive
56	CMKLR2 (chemerin chemokine-like receptor 2)	2	4.69	36	17.1	inactive
57	CMKLR2 (chemerin chemokine-like receptor 2)	3	1.06	10.4	6.46	inactive
58	TMEM143 (transmembrane protein 143)	1	-0.841	-2.95	2.19	inactive
59	TMEM143 (transmembrane protein 143)	2	-1.55	-7.92	1.48	inactive
60	TMEM143 (transmembrane protein 143)	3	2.73	22.2	13.3	inactive
61	METTL26 (methyltransferase like 26)	1	0.396	5.75	6.02	inactive
62	METTL26 (methyltransferase like 26)	2	-0.826	-2.84	2.61	inactive
63	METTL26 (methyltransferase like 26)	3	-0.224	1.39	2.83	inactive
64	HHEX (hematopoietically expressed homeobox)	1	3.44	27.2	14.9	inactive
65	HHEX (hematopoietically expressed homeobox)	2	-0.898	-3.35	4.41	inactive
66	HHEX (hematopoietically expressed homeobox)	3	-0.0144	2.87	5.25	inactive
67	ALG6 (ALG6 alpha-1,3-glucosyltransferase)	1	-0.358	0.448	6.37	inactive
68	ALG6 (ALG6 alpha-1,3-glucosyltransferase)	2	-1.19	-5.42	2.39	inactive
69	ALG6 (ALG6 alpha-1,3-glucosyltransferase)	3	0.87	9.09	6.96	inactive
70	PRPF38A (pre-mRNA processing factor 38A)	1	-0.368	0.378	4.24	inactive
71	PRPF38A (pre-mRNA processing factor 38A)	2	1.07	10.5	6.29	inactive
72	PRPF38A (pre-mRNA processing factor 38A)	3	-0.011	2.89	3.84	inactive
73	FKBP6P2 (FKBP6 pseudogene 2)	1	-0.592	-1.2	3.16	inactive
74	FKBP6P2 (FKBP6 pseudogene 2)	2	-1.25	-5.82	1.21	inactive
75	FKBP6P2 (FKBP6 pseudogene 2)	3	-0.877	-3.21	2.03	inactive
76	NOMO2 (NODAL modulator 2)	1	0.415	5.89	5.79	inactive
77	NOMO2 (NODAL modulator 2)	2	-0.583	-1.14	2.6	inactive
78	NOMO2 (NODAL modulator 2)	3	-0.592	-1.2	2.9	inactive
79	NHLH1 (nescient helix-loop-helix 1)	1	-0.897	-3.34	2.09	inactive
80	NHLH1 (nescient helix-loop-helix 1)	2	1.92	16.5	12	inactive
81	NHLH1 (nescient helix-loop-helix 1)	3	-0.078	2.42	6.3	inactive
82	F2 (coagulation factor II, thrombin)	1	0.322	5.23	7.38	inactive
83	F2 (coagulation factor II, thrombin)	2	-1.43	-7.06	2.41	inactive
84	F2 (coagulation factor II, thrombin)	3	-0.261	1.13	4.33	inactive
85	ETS2-AS1 (ETS2 antisense RNA 1)	1	1.57	14	8.91	inactive
86	ETS2-AS1 (ETS2 antisense RNA 1)	2	3.89	30.3	15.6	inactive
87	ETS2-AS1 (ETS2 antisense RNA 1)	3	0.0892	3.59	6.28	inactive

4 successive records already listed, for reference:
no.	gene symbol	reagent no.	G2 robust z-score	G2 cells, % of GMNN control	raw share of cells in G2 (%)	Outcome
81	NHLH1 (nescient helix-loop-helix 1)	3	-0.078	2.42	6.3	inactive
82	F2 (coagulation factor II, thrombin)	1	0.322	5.23	7.38	inactive
83	F2 (coagulation factor II, thrombin)	2	-1.43	-7.06	2.41	inactive
84	F2 (coagulation factor II, thrombin)	3	-0.261	1.13	4.33	inactive
